No constants are given. Whether binding was seen depends on the method and setting. Some entries that bind do so weakly or less than the wild type. For part of these data: Where a sequence is shown, tags or fusion partners need not be part of it. One block for each binder: values may come before it.
How the values were obtained:
[1] = target: HIS tagged human CD19 recombinant protein (human) (UniProt P15391); assay: ELISA, plate coated with His-tagged human CD19 at 2 ug/mL, anti-hFc HRP detection
[2] = target: human CD19 and human CD22 co-expressed on transfected K562 cells (human) (UniProt P15391+P20273); assay: FACS, scFv at 200 nM on CD19/CD22 K562 cells, Alexa Fluor 647 anti-His detection, % positive cells
[3] = target: endogenous CD22 on Raji / Nalm6 cells (also on CD19 knock-out Raji cells) (human) (UniProt P20273); assay: FACS, scFv-Fc on parental Raji and CD19 knock-out Raji cells
[4] = target: endogenous CD22 on Raji / Nalm6 cells (also on CD19 knock-out Raji cells) (human) (UniProt P20273); assay: FACS, 25 nM scFv-Fc on Raji and Nalm6 cells, anti-hFc detection
[5] = target: HIS tagged human CD22 recombinant protein (human) (UniProt P20273); assay: ELISA, plate coated with His-tagged human CD22 at 2 ug/mL, anti-hFc HRP detection

The chains behind the UniProt entries cited, without tags or fusion partners. Where a name states a change or a piece, a line headed by the entry shows the natural chain unless it says otherwise. A line that says so, or that is headed by a name, gives the form on record, which may keep a tag or linker. Residues count along the entry.
UniProt P15391, residues 20-291: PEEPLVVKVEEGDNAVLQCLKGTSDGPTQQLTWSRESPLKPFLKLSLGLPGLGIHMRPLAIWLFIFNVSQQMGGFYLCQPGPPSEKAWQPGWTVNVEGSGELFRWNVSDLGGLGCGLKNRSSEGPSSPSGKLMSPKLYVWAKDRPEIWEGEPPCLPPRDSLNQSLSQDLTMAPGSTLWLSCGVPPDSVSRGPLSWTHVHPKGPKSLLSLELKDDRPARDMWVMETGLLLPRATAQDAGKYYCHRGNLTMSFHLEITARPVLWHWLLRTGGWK
UniProt P20273: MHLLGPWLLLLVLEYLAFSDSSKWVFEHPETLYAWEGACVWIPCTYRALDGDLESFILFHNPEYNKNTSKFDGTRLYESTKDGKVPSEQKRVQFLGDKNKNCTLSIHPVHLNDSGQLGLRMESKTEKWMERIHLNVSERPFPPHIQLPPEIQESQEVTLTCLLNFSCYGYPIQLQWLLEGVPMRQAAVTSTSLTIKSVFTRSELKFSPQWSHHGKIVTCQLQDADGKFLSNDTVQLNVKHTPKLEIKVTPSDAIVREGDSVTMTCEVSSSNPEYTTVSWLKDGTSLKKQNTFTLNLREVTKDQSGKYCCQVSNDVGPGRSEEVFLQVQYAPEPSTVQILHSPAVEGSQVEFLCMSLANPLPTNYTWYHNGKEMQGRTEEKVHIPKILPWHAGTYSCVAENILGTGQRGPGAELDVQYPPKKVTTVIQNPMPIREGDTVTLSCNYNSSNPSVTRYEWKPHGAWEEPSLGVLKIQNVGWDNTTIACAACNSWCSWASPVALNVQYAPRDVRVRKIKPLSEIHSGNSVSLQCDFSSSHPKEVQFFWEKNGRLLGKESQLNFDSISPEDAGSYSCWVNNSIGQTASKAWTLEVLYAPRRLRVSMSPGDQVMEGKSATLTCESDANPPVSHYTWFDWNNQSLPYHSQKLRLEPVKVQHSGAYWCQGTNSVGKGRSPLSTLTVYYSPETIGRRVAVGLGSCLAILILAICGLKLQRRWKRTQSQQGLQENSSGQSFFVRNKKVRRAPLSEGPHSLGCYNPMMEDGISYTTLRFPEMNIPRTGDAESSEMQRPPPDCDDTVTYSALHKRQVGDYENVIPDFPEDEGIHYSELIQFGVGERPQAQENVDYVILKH
endogenous CD22 on Raji / Nalm6 cells (also on CD19 knock-out Raji cells): residues 20-847 of P20273
HIS tagged human CD22 recombinant protein: residues 20-687 of P20273

B1: anti-CD19 scFv-Fc (Fc fusion, not shown: a dimerising Fc or GST)
chain: QVQLQQWGAGLLKPSETLSLTCAVYGGSFSGYYWTWIRQPPGKGLEWIGEINHGGSSNYNPSLKSRVTISVDTSKKQFSLNLNSVTAADTAVYYCARGLGYRSGWYEVENAFDIWGQGTMVTVSSGGGGSGGGGSGGGGSQPVLTQPPSVSVAPGQTARITCGGNKIESRSVHWYQQKPGQAPVLVVYDDGARPSGIPERLSGSNSGDTATLTISRVEPGDEADYYCQVWDGSSVIFGGGTKLTVL
notes: also called anti-CD19-Fc
binding [1]: binds

B2: EPC-001-2 (scFv)
scFv (VH-linker-VL): QVQLVQSGAEVKRPGASVKVSCKASGYTFTSYGISWVRQAPGQGLEWMGWISAYNGNTNYAQKLQGRVTMTTDTSTSTAYMELRSLRSDDTAVYYCARDPGIAVAGTVDYWGQGTLVTVSSGGGGSGGGGSGGGGSEIVMTQSPATLSVSPGEGVTLSCRASQSVSSNLAWYQQRPGQAPRLLIYGASIKATDVPDRFSGGGSGTDFTLSISNVQSEDFAVYYCQQYHTWTPVTFGGGTKVEIK
notes: also called anti-CD22 monospecific scFv; parental anti-CD22 scFv
binding [2]: binds

Further lines, results first:

binding [3]: binds
binding [4]: binds
binding [5]: binds
B3: anti-CD22 scFv-Fc (Fc fusion, not shown: a dimerising Fc or GST)
chain: EVQLVQSGAEVKKPGASVKVSCKASGYTFTSYGISWVRQAPGQGLEWMGWISAYNGNTNYAQKLQGRVTMTTDTSTSTAYMELRSLRSDDTAVYYCARDYGDPSGDDYWGQGTLVTVSSGGGGSGGGGSGGGGSEIVLTQSPATLSVSPGEGVTLSCRASQSVSSNLAWYQQRPGQAPRLLIYGASIKATDVPDRFSGGGSGTDFTLSISNLQSEDFAVYYCQQYHTWPPVTFGGGTKVEIK
notes: also called Anti-CD22-Fc

binding [2]: binds
B4: EPC-001-4 (scFv)
scFv (VH-linker-VL): B3 chain
notes: as for B2

Source: US20240082402A1 (ELPIS BIOPHARMACEUTICALS, published 2024)
